By UniProt entry, the sequences of proteins in these tests, tags left out. Residues count along the entry.
UniProt P20151, 25-261 limits assumed: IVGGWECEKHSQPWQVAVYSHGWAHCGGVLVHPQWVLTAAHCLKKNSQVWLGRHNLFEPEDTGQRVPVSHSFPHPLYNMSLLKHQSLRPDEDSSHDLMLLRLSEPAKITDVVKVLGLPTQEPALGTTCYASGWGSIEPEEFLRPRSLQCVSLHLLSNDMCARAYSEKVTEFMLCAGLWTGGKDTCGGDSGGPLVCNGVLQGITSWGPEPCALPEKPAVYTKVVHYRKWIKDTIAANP

According to article PMC11339918, “Extracellular Domain of IL-10 Receptor Chain-2 (IL-10R2) and Its Arginine-Containing Peptides Are Susceptible Substrates for Human Prostate Kallikrein-2 (KLK2)” (Biochemistry, 2024):

Biological target: Recombinant KLK2 (Homo sapiens, UniProt P20151)
Test: Hydrolysis of FRET peptides by recombinant KLK2 (kinetic parameters)
Settings: Table 3, FRET peptides derived from the IL-10R2 ectodomain
Text: Obtained from a baculovirus-insect cell line system, purified, and activated as previously reported,[14] MUGB (4-methylumbelliferyl p-guanidino benzoate hydrochloride) was used for the spectrofluorimetric determination of molar concentrations of active KLK2.[15] KLK3 was obtained and assayed as previously reported.[3]
All of the FRET peptides were obtained by solid-phase peptide synthesis. The purity of FRET peptides to 95% or higher was obtained by semipreparative HPLC on a C18 reversed-phase column and used as protease substrates, as previously reported.[5] Details about the purification and quality of the FRET peptides are provided in the Supporting Information. The enzymatic kinetic measurements were all performed with FRET peptides as previously described.[5]
Five series of FRET peptides derived from Abz-KLRSSK-Q-EDDnp were assayed with KLK2 in 20 mM Tris–HCl, pH 8.0, and 1 M sodium citrate. The specificity of the S1 subsite was explored with the peptide series Abz-KLXSSK-Q-EDDnp, where X = amino acid R, A, N, D, F, G, Q, E, H, I, L, M, P, S, Y, T, V, or K. Only the peptide Abz-KLRSSKQ-EDDnp was hydrolyzed (kcat = 11.3 s^–1, Km = 6.5 μM, and kcat/Km = 1738 mM^–1 s^–1). The specificity of subsites S3, S2, S1’, and S2’ was explored by the FRET peptide series Abz-XLRSSKQ-EDDnp (for S3), Abz-KXRSSKQ-EDDnp (for S2), Abz-KLRXSKQ-EDDnp (for S1’), and Abz-KLRSXKQ-EDDnp (for S2’). All of them were hydrolyzed only at R–S or R–X peptide bonds, and the kinetic parameters for their hydrolysis by KLK2 are listed in Table 1.

Structure (SMILES) | Km [µM] | kcat [s^–1] | kcat/Km [mM s–1]
CSCC[C@H](NC(=O)[C@H](Cc1cnc[nH]1)NC(=O)c1ccccc1N)C(=O)N[C@@H](CCCNC(=N)N)C(=O)N[C@@H](Cc1ccccc1)C(=O)N[C@@H](CC(C)C)C(=O)N[C@@H](CCC(N)=O)C(=O)NCCNc1ccc([N+](=O)[O-])cc1[N+](=O)[O-] | 0.51 | 0.51 | 1000
CC(C)[C@H](NC(=O)[C@H](CCC(N)=O)NC(=O)c1ccccc1N)C(=O)N[C@@H](CCCNC(=N)N)C(=O)NCC(=O)N[C@@H](Cc1ccccc1)C(=O)N[C@@H](CCC(N)=O)C(=O)NCCNc1ccc([N+](=O)[O-])cc1[N+](=O)[O-] | 1.15 | 0.77 | 670
CSCC[C@H](NC(=O)[C@H](CCCNC(=N)N)NC(=O)[C@@H](NC(=O)[C@H](CC(N)=O)NC(=O)c1ccccc1N)C(C)C)C(=O)N[C@@H](CC(N)=O)C(=O)N[C@@H](CCC(N)=O)C(=O)NCCNc1ccc([N+](=O)[O-])cc1[N+](=O)[O-] | 0.94 | 1.28 | 1362
CC(C)C[C@H](NC(=O)[C@H](CC(N)=O)NC(=O)[C@H](CCCNC(=N)N)NC(=O)[C@H](CC(C)C)NC(=O)[C@@H](NC(=O)c1ccccc1N)C(C)C)C(=O)N[C@@H](CCC(N)=O)C(=O)NCCNc1ccc([N+](=O)[O-])cc1[N+](=O)[O-] | 0.39 | 1.61 | 4

Structures were worked out from names or drawings and are uncertain.
